Results published in patent US20240026032A1 (Alexion, published 2024).
No constants are given. Whether binding was seen depends on the method and setting. Some entries that bind do so weakly or less than the wild type.

What was measured:
[1] = molecular target: T1, Human DLAT recombinant protein (ProSpec, Catalog # ENZ-082) (human) (UniProt P10515); test: BIAcore, AntiMouse_TPP1003_DLAT (Prospec)
T1 sequence (looked up): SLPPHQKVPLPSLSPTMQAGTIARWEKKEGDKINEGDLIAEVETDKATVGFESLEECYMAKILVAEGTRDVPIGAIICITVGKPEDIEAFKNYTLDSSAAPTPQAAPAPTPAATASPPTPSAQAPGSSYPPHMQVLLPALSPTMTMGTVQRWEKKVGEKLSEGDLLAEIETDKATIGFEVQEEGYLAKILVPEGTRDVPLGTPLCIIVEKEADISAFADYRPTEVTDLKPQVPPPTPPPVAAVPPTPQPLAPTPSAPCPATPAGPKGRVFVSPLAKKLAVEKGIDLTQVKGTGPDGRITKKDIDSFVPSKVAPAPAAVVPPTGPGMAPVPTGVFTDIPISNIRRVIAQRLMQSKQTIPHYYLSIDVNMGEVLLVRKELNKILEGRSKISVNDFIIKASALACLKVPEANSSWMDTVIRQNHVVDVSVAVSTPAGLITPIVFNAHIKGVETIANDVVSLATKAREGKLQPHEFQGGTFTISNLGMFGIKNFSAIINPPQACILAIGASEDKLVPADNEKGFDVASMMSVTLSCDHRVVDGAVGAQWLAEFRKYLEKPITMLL

[2] = molecular target: T1, Human DLAT recombinant protein (ProSpec, Catalog # ENZ-082) (human); test: BLI (Octet Red), TPP-1003 loaded on anti-mouse IgG1 Fc tips, DLAT in PBS as analyte
[3] = molecular target: T1, Human DLAT recombinant protein (ProSpec, Catalog # ENZ-082) (human); test: BIAcore (SPR) kinetics
[4] = molecular target: T1, Human DLAT recombinant protein (ProSpec, Catalog # ENZ-082) (human); test: BLI, antibody on anti-mouse IgG1 Fc tips, DLAT 200 nM to 2.5 nM
[5] = molecular target: T1, Human DLAT recombinant protein (ProSpec, Catalog # ENZ-082) (human); test: BIAcore, AntiMouse_TPP1005_DLAT (Prospec)
[6] = molecular target: T1, Human DLAT recombinant protein (ProSpec, Catalog # ENZ-082) (human); test: BLI (Octet Red), TPP-1005 loaded on anti-mouse IgG1 Fc tips, DLAT in PBS as analyte

Measured: binding

B1: TPP-1003 (mIgG1 PD2 Ab) (antibody, V domains shown)
VH: EVQLVESGGGLVKPGGSLRLSCAASGFTFGSYSMTWVRQAPGKGLEWVSFISTVSTYIYYPDSVKGRFTISRDNAKNSLYLQMNSLRAEDTAVYYCARVSGRGSAARDGEKGTYYYYMDVWGKGTTVTVSS
VL: SSELTQDPAVSVALGQTVTITCQGDSLRSYYASWYQQKPGQAPVLVIFGKNNRPSGIPDRFSGSRSGNTASLTITGAQAEDEADYFCDSRDSSANHWVFGGGTKLTVLQ
notes: also called mouse IgG1 chimera anti-DLAT antibody PD2
binds: [1] | [2] | [3] | [4]

B2: TPP-1005 (mIgG1 DWZ Ab) (antibody, V domains shown)
VH: EVQLLESGGDVVQPGGSLRLSCVASGFTLTNYVTAWVRRRPGKGLEWISGMTHGAVATYYSDSVRGRFSSSRDTSRSTLYLQMNDLTVEDTAIYYCAKSLHRSGTSLSYWGQGTLVTVSS
VL: QSVLTQPPSASGTPGQNINISCSGTTSNIGGSNVDWYQHVPGTAPKLFIHSNNQRPSGVPARFSASKSGTSASLAISGLQSEDEADYYCATWDVRLLAYVFGSATEVTVLR
notes: also called murine IgG1 DWZ
binds: [3] | [4] | [5] | [6]
